The compounds below were run on panelists (assay: Cooling intensity: panelists taste aqueous solutions versus menthol at 2 ppm). Conditions: aqueous solution at the concentration of Table 2.
Assay type: in vivo

Compound | Odor
1-Isopropyl-4-methyl-bicyclo[2.2.2]oct-5-ene-2-carboxylic acid and 1-isopropyl-4-methyl-bicyclo[2.2.2]oct-5-ene-3-carboxylic acid [Example 2] | None
CC(C)C12C=CC(C)(CC1)C(CO)C2CO (stereo not drawn) [Example 1, 1-Isopropyl-4-methyl-bicyclo[2.2.2]oct-5-ene-2,3-dicarbinol] | None
CCNC(=O)C1CC2(C)C=CC1(C(C)C)CC2 (stereo not drawn) [Example 4, N-ethyl 1-Isopropyl-4-methyl-bicyclo[2.2.2]oct-5-ene-2-carboxamide] | None
CC1=CC2C(O)CC1CC2C(C)C (stereo not drawn) [Example 6, 7-isopropyl-5-methyl-bicyclo[2.2.2]oct-5-en-2-ol] | slightly
CC1CCC(C(C)C)C(O)C1 (stereo not drawn) [I-Menthol, reference compound] | Minty
CCNC(=O)C1CC(C)CCC1C(C)C (stereo not drawn) [WS-3, N-ethyl p-menthanecarboxamide, reference compound] | None

Reference: US20090098066A1, “Substituted bicyclo [2.2.2] oct/5-ene compounds and their use as cooling agents” (priority 2005, published 2009)
